According to PMC4858382:
These are yes or no findings as the source states them, for the method shown. Binding seen in cells or lysates may run through a third protein. Some results given as binding are weak or reduced against the parent protein; the word gives no strength. For part of these data: Tags and fused reporters may be left off the sequences shown. One block for each molecule: values may come before it.

Protein sequences, listed by entry. Tags and fused reporters are not part of them.
UniProt Q9P209: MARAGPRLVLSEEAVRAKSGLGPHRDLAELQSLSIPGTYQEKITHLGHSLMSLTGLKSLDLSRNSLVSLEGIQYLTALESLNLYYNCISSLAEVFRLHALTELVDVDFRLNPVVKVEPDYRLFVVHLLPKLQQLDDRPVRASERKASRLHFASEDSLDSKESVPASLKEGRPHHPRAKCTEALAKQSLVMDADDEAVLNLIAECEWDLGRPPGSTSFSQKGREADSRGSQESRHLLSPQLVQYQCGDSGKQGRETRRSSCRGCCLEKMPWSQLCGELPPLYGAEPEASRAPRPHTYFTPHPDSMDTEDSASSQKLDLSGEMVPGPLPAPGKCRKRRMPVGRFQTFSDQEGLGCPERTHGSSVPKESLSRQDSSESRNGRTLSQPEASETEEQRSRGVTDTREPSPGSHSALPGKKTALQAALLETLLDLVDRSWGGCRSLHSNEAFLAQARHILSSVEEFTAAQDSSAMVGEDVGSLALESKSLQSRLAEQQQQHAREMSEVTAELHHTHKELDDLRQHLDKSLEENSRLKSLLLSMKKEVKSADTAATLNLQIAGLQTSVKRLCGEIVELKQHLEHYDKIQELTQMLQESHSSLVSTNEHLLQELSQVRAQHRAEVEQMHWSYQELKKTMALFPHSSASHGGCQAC

Assays:
Assay in all cases: co-IP; HEK293T transfected with Myc-mPCM1 fragments for 48 h; lysates in ELB buffer (50 mM Hepes pH 7, 150 mM NaCl, 5 mM EDTA, 0.1% NP-40); anti-Myc antibody on Protein G Sepharose, 4°C; western blot for endogenous satellite proteins
[1] = biological target: Myc-tagged full-length mouse PCM1 (mouse) (UniProt Q9R0L6)
[2] = biological target: T1, Myc-mPCM1 fragment spanning residues 1–1500 (mouse) (UniProt Q9R0L6)
T1 sequence: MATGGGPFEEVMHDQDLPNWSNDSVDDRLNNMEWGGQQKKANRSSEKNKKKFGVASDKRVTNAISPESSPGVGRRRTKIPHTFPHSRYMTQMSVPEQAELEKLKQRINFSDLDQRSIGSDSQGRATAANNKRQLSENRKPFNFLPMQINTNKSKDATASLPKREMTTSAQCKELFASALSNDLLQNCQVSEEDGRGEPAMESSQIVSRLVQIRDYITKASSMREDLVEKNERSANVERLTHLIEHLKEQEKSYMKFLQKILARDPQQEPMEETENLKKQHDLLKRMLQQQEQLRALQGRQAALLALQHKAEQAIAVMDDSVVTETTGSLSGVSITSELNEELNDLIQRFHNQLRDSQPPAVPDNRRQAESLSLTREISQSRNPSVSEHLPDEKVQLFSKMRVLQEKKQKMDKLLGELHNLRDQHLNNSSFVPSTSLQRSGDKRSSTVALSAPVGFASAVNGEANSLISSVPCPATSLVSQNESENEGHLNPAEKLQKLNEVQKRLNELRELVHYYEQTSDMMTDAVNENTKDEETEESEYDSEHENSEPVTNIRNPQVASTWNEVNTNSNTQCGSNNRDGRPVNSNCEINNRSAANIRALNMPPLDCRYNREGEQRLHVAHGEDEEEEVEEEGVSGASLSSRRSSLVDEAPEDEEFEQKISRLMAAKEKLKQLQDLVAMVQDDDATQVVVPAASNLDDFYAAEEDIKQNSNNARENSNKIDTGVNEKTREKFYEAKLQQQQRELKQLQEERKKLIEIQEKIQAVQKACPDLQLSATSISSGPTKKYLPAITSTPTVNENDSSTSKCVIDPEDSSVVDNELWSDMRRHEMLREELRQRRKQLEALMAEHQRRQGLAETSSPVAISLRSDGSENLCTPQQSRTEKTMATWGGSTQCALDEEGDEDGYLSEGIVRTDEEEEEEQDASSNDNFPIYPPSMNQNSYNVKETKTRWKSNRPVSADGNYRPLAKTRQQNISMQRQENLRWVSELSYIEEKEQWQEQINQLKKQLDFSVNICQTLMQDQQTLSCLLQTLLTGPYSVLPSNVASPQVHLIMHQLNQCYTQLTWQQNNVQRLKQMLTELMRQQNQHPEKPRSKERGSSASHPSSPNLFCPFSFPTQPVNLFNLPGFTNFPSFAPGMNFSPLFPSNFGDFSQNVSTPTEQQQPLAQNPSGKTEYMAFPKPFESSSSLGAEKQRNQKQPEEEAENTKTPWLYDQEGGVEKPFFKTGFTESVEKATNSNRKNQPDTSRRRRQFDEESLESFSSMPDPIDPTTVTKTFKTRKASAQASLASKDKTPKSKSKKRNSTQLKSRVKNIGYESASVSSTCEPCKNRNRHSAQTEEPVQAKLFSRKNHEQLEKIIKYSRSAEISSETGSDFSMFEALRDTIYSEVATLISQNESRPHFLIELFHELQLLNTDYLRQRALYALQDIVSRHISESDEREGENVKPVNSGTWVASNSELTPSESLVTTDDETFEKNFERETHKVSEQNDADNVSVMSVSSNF

[3] = biological target: T2, Myc-mPCM1 fragment spanning residues 1–1200 (mouse) (UniProt Q9R0L6)
T2 sequence: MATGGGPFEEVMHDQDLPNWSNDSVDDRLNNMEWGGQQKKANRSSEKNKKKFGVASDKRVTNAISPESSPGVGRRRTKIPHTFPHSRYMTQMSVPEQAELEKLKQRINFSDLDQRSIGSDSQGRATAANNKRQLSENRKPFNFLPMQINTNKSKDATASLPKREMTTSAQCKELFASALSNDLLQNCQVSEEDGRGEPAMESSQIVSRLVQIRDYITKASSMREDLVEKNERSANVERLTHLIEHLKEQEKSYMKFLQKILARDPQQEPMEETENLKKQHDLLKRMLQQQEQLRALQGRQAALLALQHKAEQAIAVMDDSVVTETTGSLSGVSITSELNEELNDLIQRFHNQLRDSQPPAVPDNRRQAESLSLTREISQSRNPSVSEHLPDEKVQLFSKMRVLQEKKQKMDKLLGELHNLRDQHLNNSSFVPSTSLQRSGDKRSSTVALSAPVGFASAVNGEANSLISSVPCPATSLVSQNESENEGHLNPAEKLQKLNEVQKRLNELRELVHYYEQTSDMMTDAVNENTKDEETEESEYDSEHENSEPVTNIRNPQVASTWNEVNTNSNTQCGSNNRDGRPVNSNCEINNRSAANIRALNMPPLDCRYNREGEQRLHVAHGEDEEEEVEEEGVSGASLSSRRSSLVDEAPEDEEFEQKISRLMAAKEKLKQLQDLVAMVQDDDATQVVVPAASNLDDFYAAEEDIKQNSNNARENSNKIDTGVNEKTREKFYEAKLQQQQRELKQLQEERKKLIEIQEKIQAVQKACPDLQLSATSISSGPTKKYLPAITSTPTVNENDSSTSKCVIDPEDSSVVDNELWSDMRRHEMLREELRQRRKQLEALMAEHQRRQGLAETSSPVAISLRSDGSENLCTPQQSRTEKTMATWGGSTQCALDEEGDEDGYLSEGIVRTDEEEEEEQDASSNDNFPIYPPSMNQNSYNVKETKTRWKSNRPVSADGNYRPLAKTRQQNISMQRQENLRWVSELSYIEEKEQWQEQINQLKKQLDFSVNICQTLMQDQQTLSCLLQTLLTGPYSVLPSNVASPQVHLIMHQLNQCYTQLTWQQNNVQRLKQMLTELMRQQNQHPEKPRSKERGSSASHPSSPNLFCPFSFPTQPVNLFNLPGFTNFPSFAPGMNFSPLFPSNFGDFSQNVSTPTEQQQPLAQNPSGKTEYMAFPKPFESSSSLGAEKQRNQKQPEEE

binding [1]: binds
binding [2]: binds
binding [3]: binds
Molecule: Cep72, endogenous (from UniProt Q9P209 1-647)

binding [1]: binds
binding [2]: binds
binding [3]: binds
B1: AZI1/Cep131, endogenous (protein, UniProt Q9UPN4 1-1083)
chain: MKGTRAIGSVPERSPAGVDLSLTGLPPPVSRRPGSAATTKPIVRSVSVVTGSEQKRKVLEATGPGGSQAINNLRRSNSTTQVSQPRSGSPRPTEPTDFLMLFEGSPSGKKRPASLSTAPSEKGATWNVLDDQPRGFTLPSNARSSSALDSPAGPRRKECTVALAPNFTANNRSNKGAVGNCVTTMVHNRYTPSERAPPLKSSNQTAPSLNNIIKAATCEGSESSGFGKLPKNVSSATHSARNNTGGSTGLPRRKEVTEEEAERFIHQVNQATVTIQRWYRHQVQRRGAGAARLEHLLQAKREEQRQRSGEGTLLDLHQQKEAARRKAREEKARQARRAAIQELQQKRALRAQKASTAERGPPENPRETRVPGMRQPAQELSPTPGGTAHQALKANNTGGGLPAAGPGDRCLPTSDSSPEPQQPPEDRTQDVLAQDAAGDNLEMMAPSRGSAKSRGPLEELLHTLQLLEKEPDVLPRPRTHHRGRYAWASEVTTEDDASSLTADNLEKFGKLSAFPEPPEDGTLLSEAKLQSIMSFLDEMEKSGQDQLDSQQEGWVPEAGPGPLELGSEVSTSVMRLKLEVEEKKQAMLLLQRALAQQRDLTARRVKETEKALSRQLQRQREHYEATIQRHLAFIDQLIEDKKVLSEKCEAVVAELKQEDQRCTERVAQAQAQHELEIKKLKELMSATEKARREKWISEKTKKIKEVTVRGLEPEIQKLIARHKQEVRRLKSLHEAELLQSDERASQRCLRQAEELREQLEREKEALGQQERERARQRFQQHLEQEQWALQQQRQRLYSEVAEERERLGQQAARQRAELEELRQQLEESSSALTRALRAEFEKGREEQERRHQMELNTLKQQLELERQAWEAGRTRKEEAWLLNREQELREEIRKGRDKEIELVIHRLEADMALAKEESEKAAESRIKRLRDKYEAELSELEQSERKLQERCSELKGQLGEAEGENLRLQGLVRQKERALEDAQAVNEQLSSERSNLAQVIRQEFEDRLAASEEETRQAKAELATLQARQQLELEEVHRRVKTALARKEEAVSSLRTQHEAAVKRADHLEELLEQHRRPTPSTK
